Measured values as given in PubChem BioAssay AID2417 (National Center for Advancing Translational Sciences (NCATS), 2010).
Among all 140,000 compounds or so, about 4,300 (3.1%) were called active. Inconclusive results, whose numbers are uncertain, are shown with a selection of clear calls.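 Rule for the calls: active = readout at or below -70, meaning at least 70% loss of cells showing the perinucleolar compartment, a nuclear body marking cancer cells; inconclusive = readout between -30 and a set limit; inactive = the rest.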

Experiment: High Content Assay for Compounds that inhibit the Assembly of the Perinucleolar Compartment;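 note: plate controls were DMSO wells for no effect and camptothecin positive control wells for full effect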
Details: PC3M PTB-GFP, PNC prevalence imaging, 16 h; at 10 µM; active compounds read low
In short: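 Compounds are pinned in duplicate onto adhered PC3M cells stably expressing GFP-tagged PTB and incubated 16 h at 37 C. Cells are then fixed, nuclei stained with Hoechst, and PNC-positive cells counted.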

SMILES	activity change (PNC), negative = inhibition
C#CCN1C(=O)C(O)(CC(=O)c2cccc(OC)c2)c2ccccc21 (configuration not stated)	inconclusive: -40.2%
CC(C)c1nc2ccc(NC(=O)C3CCCCC3)cc2[nH]1	inconclusive: -41.4%
CN(C)Cc1c(O)ccc2oc(Cc3ccccc3)cc12	inconclusive: -49.6%
COc1ccc(S(=O)(=O)NC(CC(=O)NCCc2ccc(OC)c(OC)c2)c2ccco2)cc1 (configuration not stated)	inconclusive: -57.8%
COc1ccc(C/C(O)=C(\C#N)c2nc3ccccc3s2)cc1	inconclusive: -43.8%
Cc1cc(C)c(NC(=S)N(Cc2cccnc2)Cc2ccco2)c(C)c1	inconclusive: -44.6%
CCCOc1ccc(NC(=O)C2CC(=O)N/C(=N/N=C(C)/C=C/c3ccc(N(C)C)cc3)S2)cc1 (configuration not stated)	inconclusive: -34.8%
CCc1ccc(NS(=O)(=O)c2ccc3[nH]cc(C(=O)N4CCCCC4)c(=O)c3c2)cc1	inconclusive: -60.3%
CCOn1c(=O)c(-c2ccc(Cl)cc2)[n+]([O-])c2ccccc21	inconclusive: -39.3%
C=CCn1c(SCC(=O)Nc2ccccc2C)nc2sc(C)c(C)c2c1=O	inactive: 15.1%
COc1ccc(CC(=O)Nc2ccc(-c3cn4ccc(C)cc4n3)cc2)cc1	inconclusive: -68.4%
COc1cc(OC)c(NC(=S)Nc2cccc(C(C)=O)c2)cc1Cl	inactive: 24.7%
CC1CCN(C(=O)CN2C(=O)c3ccccc3S2(=O)=O)CC1	inconclusive: -41.5%
O=C(NCc1ccco1)C1OCCc2ccccc21 (configuration not stated)	inconclusive: -53.7%
COC(=O)CON1C(=O)c2ccccc2C1=O	inactive: -3.23%
O=C(Nc1ccc(F)cc1)Nc1ccc(Cl)cn1	inconclusive: -39%
CC(=O)Nc1c(C(=O)N2CCN(c3ccccn3)CC2)cnn1-c1ccc(C)cc1	inactive: 16.9%
Cc1ccc(/C=N/n2cnc3sc4c(c3c2=O)CCCC4)o1	inconclusive: -47.7%
O=C(CC1SC(=Nc2ccccc2)N(Cc2ccccn2)C1=O)Nc1cccc(Cl)c1 (configuration not stated)	inconclusive: -52.5%
CC(=C/c1ccco1)/C=N/NC(=O)Cc1cccn1C	inactive: 41.5%
CCOC(=O)CCCc1sc(N)nc1-c1[nH]c(=O)[nH]c1C	inactive: 14.5%
Cc1ccc(NC(=O)COC(=O)c2ccc([N+](=O)[O-])s2)c(C)c1	inconclusive: -33.4%
CCOC(=O)c1c(N)sc(C(=O)N2CCCCCC2)c1C	inactive: -6.21%

A portion taken from the entries so far, as a working copy:
SMILES	activity change (PNC), negative = inhibition
CN(C)Cc1c(O)ccc2oc(Cc3ccccc3)cc12	inconclusive: -49.6%
COc1ccc(S(=O)(=O)NC(CC(=O)NCCc2ccc(OC)c(OC)c2)c2ccco2)cc1 (configuration not stated)	inconclusive: -57.8%
COc1ccc(C/C(O)=C(\C#N)c2nc3ccccc3s2)cc1	inconclusive: -43.8%
Cc1cc(C)c(NC(=S)N(Cc2cccnc2)Cc2ccco2)c(C)c1	inconclusive: -44.6%
CCCOc1ccc(NC(=O)C2CC(=O)N/C(=N/N=C(C)/C=C/c3ccc(N(C)C)cc3)S2)cc1 (configuration not stated)	inconclusive: -34.8%

Next part.

SMILES	activity change (PNC), negative = inhibition
O=C(C1CC1)N1CCc2cc(Br)cc(S(=O)(=O)NCc3ccco3)c21	inactive: -4.44%
CCOc1ccc(N/C=C/C(=O)c2ccc(C)cc2)c([N+](=O)[O-])c1	inconclusive: -30.3%
NS(=O)(=O)c1ccc(NC(=O)CSC2CCCCC2)cc1	inactive: 17.8%
CN(C)c1ccc(C(=O)N2CC(=O)N(CCc3ccccc3)C(=O)C2)cc1	inactive: -2.34%
CC(=O)Nc1ccc(S(=O)(=O)Nc2nc3c(s2)CCCC3)cc1	inconclusive: -74.3%
O=C(Nc1ccc2nc(-c3cccnc3)[nH]c2c1)c1ccccc1F	inconclusive: -58.5%
CC(=O)Nc1ccc(OC(=O)c2cc3ccccc3oc2=O)cc1	inactive: 50.6%
O=C(Nc1ccc(F)c(F)c1)c1ccccc1-c1ccccc1	inactive: 29%
CCOC(=O)CNS(=O)(=O)c1ccc(S(=O)(=O)N2CCCC2)cc1	inconclusive: -50.2%
CC(C)OC(=O)CSc1nnc(-c2cnccn2)n1C	active: -91.3%
CCOC(=O)c1nn(-c2ccccc2)c(=O)c2c(N)scc12	inactive: 8.95%
O=C(NCc1ccco1)C1CCN(c2nc3ccccc3n2Cc2ccccc2F)CC1	inconclusive: -58.2%
O=C1CCCC2=C1C(c1ccccc1O)C1=C(CCCC1=O)O2	inconclusive: -50.4%
CC[n+]1c(/C=C/Nc2ccccc2)sc2ccccc21	inactive: -28.2%
Nc1[nH]ncc1C(=O)Nc1cccc(C(F)(F)F)c1	inconclusive: -34.8%
COC(=O)c1cn(NC(=O)Cc2ccc(Cl)cc2)c(=O)c2ccccc12	inconclusive: -33.3%
CCOC(=O)C(NC(=O)NCc1cccc(C(F)(F)F)c1)(OCC)C(F)(F)F (configuration not stated)	inconclusive: -42%
CC1(C)Cc2ccccc2/C(=C/C(=O)N2CCCCCC2)N1	inconclusive: -38.1%
Cc1ccc(NS(=O)(=O)N(C)C)cc1	active: -100%
COc1ccc(Nc2ncnc3ccccc23)c(OC)c1	inactive: 8.21%
Cn1cccc1CC(=O)NNC(=S)Nc1ccc(Cl)cc1	inactive: 31.5%
COc1cc(OC)c(OC)cc1/C=N/NC(=O)c1cc(-c2cccn2C)n[nH]1	inactive: 68.3%
Cc1occc1-c1nnc(SCC(=O)N2CCN(c3ccccc3)CC2)n1C	inconclusive: -39.4%

SMILES	activity change (PNC), negative = inhibition
CC(C)N(C(=O)CSc1nc2ccccc2n1Cc1ccc(F)cc1)C(C)C	inconclusive: -31%
O=C(NNC(=S)Nc1cccc2ccccc12)c1cccc(Br)c1	inconclusive: -41.7%
O=S(=O)(c1cc(Cl)ccc1Br)N1CCOCC1	inconclusive: -48.8%
O=C(Nc1ccc(C(=O)Oc2ccccc2)c(O)c1)c1ccco1	inconclusive: -63.2%
COc1ccc(NC(=O)CCN2CCN(S(=O)(=O)c3cc(Cl)ccc3Cl)CC2)cc1	inactive: 42.1%
FC(F)(F)c1cnc(/C=C/Nc2ccccc2Cl)c(Cl)c1	inactive: -2.86%
C/C(=N/NC(=O)c1ccco1)c1cccc(NC(=O)c2ccc(C)s2)c1	inconclusive: -54.4%
O=C(Cn1nnc(-c2ccccc2-n2cnnn2)n1)c1ccccc1	inconclusive: -46.9%
O=C(NCCC1=CCCCC1)C1CCN(C(=O)Nc2ccccc2)CC1	inconclusive: -57%
CC(=O)NS(=O)(=O)c1ccc(NC(=O)c2ccc(Br)o2)cc1	inconclusive: -31.9%
FC(F)(F)c1cccc(Nc2ncnc3ccccc23)c1	inconclusive: -54%
CCOc1ccc(NC(=O)c2ccccc2NS(C)(=O)=O)cc1	inconclusive: -44.3%
CN(O)/C=c1/ccc2c(n1)C(=O)C=CC=2	inconclusive: -39%
CS(=O)(=O)N(CC(=O)N1CCN(c2cccc(Cl)c2)CC1)c1ccccc1	inconclusive: -35.1%
O=C(CN1N=C(c2ccc(Cl)cc2)CCC1=O)NCCN1CCc2ccccc2C1	inactive: -21.4%
CCOC(=O)c1sc(NC(=S)NC(=O)c2ccccc2)c(C(=O)OCC)c1C	inactive: 36.3%
Cc1cc(C)cc(C(=O)OCC(=O)NCC(F)(F)F)c1	inconclusive: -39.8%
Oc1c(CN2CCN(c3ccccn3)CC2)cc(Cl)c2cccnc12	inconclusive: -44%
COc1cccc(C2(c3cccc(OC)c3)CC2C(=O)Nc2ccccc2Cl)c1 (configuration not stated)	active: -81.7%
CC(C)CCn1c(O)c(N=NC(=O)c2ccco2)c2ccccc21	inactive: -9.72%
CC(C)n1nnnc1SCC(=O)c1ccc2c(c1)OCCO2	inactive: 19.1%
CN(C)S(=O)(=O)c1ccc(N2CCCC2)c(C(=O)Nc2nc(-c3ccc(F)cc3)cs2)c1	inconclusive: -30.5%
Oc1ccccc1OCc1nc2ccccc2s1	inactive: 15.2%

SMILES	activity change (PNC), negative = inhibition
O=C1CC(N2CCN(c3ccc(C(=O)c4ccc(F)cc4)cc3)CC2)C(=O)N1 (configuration not stated)	inactive: -12.4%
Cc1ccc2nc(NCCCN3CCOCC3)c(C=NCCCN3CCOCC3)c(=O)n2c1	inconclusive: -54.6%
O=S(=O)(Cc1ccccc1)N1CCCC1	active: -100%
Cc1cc(-c2csc(N)n2)c(C)n1CCc1ccccc1	active: -108%
C/C=C/c1ccc(OCCCNC(C)CC)c(OC)c1 (configuration not stated)	inactive: 55.3%
CCOC(=O)Cn1nnnc1C(C(C)C)N(Cc1cc2c(C)cc(C)cc2[nH]c1=O)C1CCCC1 (configuration not stated)	inactive: 151%
CC(=O)Nc1ccc(S(C)(=O)=O)c(C)c1	inconclusive: -53.4%
CCCCNC(=O)NS(=O)(=O)c1ccc(C(=O)OC(C)C)o1	inconclusive: -47.4%
CCOC(=O)c1cnc2ccc(OCC)cc2c1N(C)Cc1ccccc1	inconclusive: -70.3%
CCOC(=O)C1=C(c2ccccc2)N2CCS(=O)(=O)N=C2S1	active: -83.3%
COCCCNC(=S)NNC(=O)c1ccoc1C	inconclusive: -45.7%
CCOC(=O)c1c(N)sc(=S)c2c1CCC2	inconclusive: -39.1%
COc1ccc(-n2nc(C(=O)Nc3ccc4c(c3)OCO4)c3c4ccccc4n(C)c3c2=O)cc1	inconclusive: -68.4%
Cc1cc(NS(=O)(=O)c2ccc(NC(=O)Nc3ccccc3)cc2)no1	inconclusive: -36.9%
Cc1cc(C(F)F)n2nc(C(=O)Nc3sc4c(c3C#N)CCC(C)C4)nc2n1 (configuration not stated)	inactive: 58.1%
O=C(Nc1cccc(S(=O)(=O)Nc2ccc(Cl)cc2)c1)c1ccc(Cl)nc1	inconclusive: -69.9%
N#CCCN1CCN(S(=O)(=O)c2ccc(S(=O)(=O)N3CCCC3)cc2)CC1	inactive: -15%
Cc1cc(=O)c(C(=O)O)cn1Nc1ccc(Cl)cc1	inconclusive: -45.1%
COc1ccccc1Oc1ccc(S(=O)(=O)Nc2cccnc2)cc1	inconclusive: -45.2%
Cc1ccc(S(=O)(=O)N2CCCCC2)cc1NC(=O)Cc1c[nH]c2ccccc12	inconclusive: -39.8%
COC(=O)c1cc2c(s1)-c1ccccc1CC2	inconclusive: -44.6%
COc1ccc(CNC(=O)CSc2nnnn2Cc2ccccc2)cc1	inactive: 19.3%
Cc1ccc(NC(=O)CC2SC3=NCCCN3C2=O)c(C)c1 (configuration not stated)	inactive: 4.3%
